Measurements taken from paper PMC10493609 (Frontiers in Immunology, 2023).
No constants are given. Whether binding was seen depends on the method and setting. Some entries that bind do so weakly or less than the wild type.

Amino acid sequences for entries named in this document (tags omitted). Residues count along the entry.
UniProt Q9NZQ7: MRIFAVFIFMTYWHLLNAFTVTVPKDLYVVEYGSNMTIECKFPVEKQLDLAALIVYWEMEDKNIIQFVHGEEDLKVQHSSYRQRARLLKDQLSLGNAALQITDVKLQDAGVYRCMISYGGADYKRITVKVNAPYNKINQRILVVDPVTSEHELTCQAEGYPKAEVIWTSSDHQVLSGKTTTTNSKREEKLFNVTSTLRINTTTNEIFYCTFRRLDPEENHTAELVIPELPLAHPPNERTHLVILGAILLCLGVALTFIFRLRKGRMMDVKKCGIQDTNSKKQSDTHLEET
UniProt Q15116, residues 25-170: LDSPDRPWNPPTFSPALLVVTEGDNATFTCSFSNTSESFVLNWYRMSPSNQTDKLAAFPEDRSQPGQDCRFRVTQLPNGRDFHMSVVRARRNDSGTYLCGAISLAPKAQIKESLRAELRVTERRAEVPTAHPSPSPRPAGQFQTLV

Tests used:
[1] = molecular target: PD-L1 human recombinant protein (human) (UniProt Q9NZQ7); assay: SPR; Gal-3 (1 µM) over immobilised PD-1 or immobilised PD-L1, with and without the Gal-3 inhibitor GB1211; both purified
[2] = molecular target: PD-1 human recombinant protein (human) (UniProt Q15116); assay: as above

Human recombinant Galectin-3 (from UniProt P17931 1-250)
binding [1]: binds | binding [2]: binds
